Reference: the M2OR odorant receptor database
This is a selection; strong and weak results do not stand in their true shares. The calls were merged from several studies; some rest on single wells.

Tests used:
Conditions in all cases: stereoisomer not certain
OR10T2 (Homo sapiens) = molecular target: T1, OR10T2 (Homo sapiens) (UniProt Q8NGX3)
T1 sequence (whole entry): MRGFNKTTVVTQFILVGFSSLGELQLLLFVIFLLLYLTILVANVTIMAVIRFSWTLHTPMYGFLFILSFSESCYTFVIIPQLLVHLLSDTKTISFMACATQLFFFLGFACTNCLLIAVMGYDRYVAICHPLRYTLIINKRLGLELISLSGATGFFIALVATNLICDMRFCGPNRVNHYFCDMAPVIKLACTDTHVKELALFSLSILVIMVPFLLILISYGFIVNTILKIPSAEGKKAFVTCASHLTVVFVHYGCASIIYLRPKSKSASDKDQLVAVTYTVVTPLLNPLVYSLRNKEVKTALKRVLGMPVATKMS
Procedure, shortened: (§1)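 Whether a receptor–molecule pair is responsive (active) rests on the original authors' judgment that its measured signal was statistically different from baseline. Pairs without that judgment are non-responsive (inactive). Sources used varied assay methods, commonly transient luciferase assays in mammalian cell lines.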

OR10X1 (Homo sapiens) = molecular target: T2, OR10X1 (Homo sapiens) (UniProt Q8NGY0)
T2 sequence (whole entry): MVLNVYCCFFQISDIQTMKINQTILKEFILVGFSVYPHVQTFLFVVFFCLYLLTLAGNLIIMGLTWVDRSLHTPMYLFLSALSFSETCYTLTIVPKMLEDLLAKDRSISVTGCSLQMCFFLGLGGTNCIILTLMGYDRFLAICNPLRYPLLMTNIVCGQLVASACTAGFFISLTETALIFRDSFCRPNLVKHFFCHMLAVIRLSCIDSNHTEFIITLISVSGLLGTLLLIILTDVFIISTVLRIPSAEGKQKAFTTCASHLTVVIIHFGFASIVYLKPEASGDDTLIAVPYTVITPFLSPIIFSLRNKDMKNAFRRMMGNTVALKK
Procedure, shortened: as §1

OR10Z1 (Homo sapiens) = molecular target: T3, OR10Z1 (Homo sapiens) (UniProt Q8NGY1)
T3 sequence (whole entry): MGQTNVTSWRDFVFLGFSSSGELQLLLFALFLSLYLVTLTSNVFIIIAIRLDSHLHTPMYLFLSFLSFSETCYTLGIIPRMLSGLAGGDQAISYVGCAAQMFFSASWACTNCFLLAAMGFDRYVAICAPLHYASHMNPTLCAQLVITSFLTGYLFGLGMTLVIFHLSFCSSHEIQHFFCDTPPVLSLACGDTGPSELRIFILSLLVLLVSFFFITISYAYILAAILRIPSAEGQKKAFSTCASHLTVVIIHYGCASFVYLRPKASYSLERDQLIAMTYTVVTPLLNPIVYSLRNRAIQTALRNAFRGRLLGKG
Procedure, shortened: as §1

OR11A1 (Homo sapiens) = molecular target: T4, OR11A1 (Homo sapiens) (UniProt Q9GZK7)
T4 sequence (whole entry): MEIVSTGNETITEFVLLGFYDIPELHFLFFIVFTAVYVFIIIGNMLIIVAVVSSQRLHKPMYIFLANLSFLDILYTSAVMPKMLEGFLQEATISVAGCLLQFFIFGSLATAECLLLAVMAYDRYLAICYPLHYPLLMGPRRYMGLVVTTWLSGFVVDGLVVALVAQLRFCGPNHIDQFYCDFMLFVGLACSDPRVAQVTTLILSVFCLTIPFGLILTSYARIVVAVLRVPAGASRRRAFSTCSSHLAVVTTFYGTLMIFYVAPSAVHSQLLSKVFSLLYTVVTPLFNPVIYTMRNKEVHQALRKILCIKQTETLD
Procedure, shortened: as §1

OR11H4 (Homo sapiens) = molecular target: T5, OR11H4 (Homo sapiens) (UniProt Q8NGC9)
T5 sequence (whole entry): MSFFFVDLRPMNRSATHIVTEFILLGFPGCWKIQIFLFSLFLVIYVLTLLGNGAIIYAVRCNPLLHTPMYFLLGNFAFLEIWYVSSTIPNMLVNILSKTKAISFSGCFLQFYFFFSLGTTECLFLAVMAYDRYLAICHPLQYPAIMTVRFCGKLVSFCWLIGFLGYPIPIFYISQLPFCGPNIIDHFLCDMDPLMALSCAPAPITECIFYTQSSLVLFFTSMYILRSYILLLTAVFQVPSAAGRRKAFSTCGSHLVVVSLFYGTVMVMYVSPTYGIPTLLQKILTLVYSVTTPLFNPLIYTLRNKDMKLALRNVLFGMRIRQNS
Procedure, shortened: as §1

OR11H6 (Homo sapiens) = molecular target: T6, OR11H6 (Homo sapiens) (UniProt Q8NGC7)
T6 sequence (whole entry): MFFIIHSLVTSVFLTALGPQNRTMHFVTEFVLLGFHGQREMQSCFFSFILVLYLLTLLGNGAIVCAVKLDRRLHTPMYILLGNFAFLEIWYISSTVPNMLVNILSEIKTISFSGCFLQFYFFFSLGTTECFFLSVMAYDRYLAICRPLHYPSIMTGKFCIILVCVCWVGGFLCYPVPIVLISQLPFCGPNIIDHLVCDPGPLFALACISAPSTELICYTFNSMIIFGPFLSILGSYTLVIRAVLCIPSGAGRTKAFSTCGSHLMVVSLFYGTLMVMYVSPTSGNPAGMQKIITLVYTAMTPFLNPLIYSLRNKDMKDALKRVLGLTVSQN
Procedure, shortened: as §1

OR12D2 (Homo sapiens) = molecular target: T7, OR12D2 (Homo sapiens) (UniProt P58182)
T7 sequence (whole entry): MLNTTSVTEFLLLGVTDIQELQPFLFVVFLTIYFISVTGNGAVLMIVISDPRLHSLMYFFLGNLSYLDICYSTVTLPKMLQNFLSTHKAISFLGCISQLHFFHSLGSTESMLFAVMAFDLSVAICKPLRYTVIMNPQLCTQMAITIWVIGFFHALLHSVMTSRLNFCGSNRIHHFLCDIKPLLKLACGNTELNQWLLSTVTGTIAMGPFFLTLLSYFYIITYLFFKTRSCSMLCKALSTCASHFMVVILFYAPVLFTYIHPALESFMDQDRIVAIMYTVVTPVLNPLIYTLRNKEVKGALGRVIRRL
Procedure, shortened: as §1

OR12D3 (Homo sapiens) = molecular target: T8, OR12D3 (Homo sapiens) (UniProt Q9UGF7)
T8 sequence (whole entry): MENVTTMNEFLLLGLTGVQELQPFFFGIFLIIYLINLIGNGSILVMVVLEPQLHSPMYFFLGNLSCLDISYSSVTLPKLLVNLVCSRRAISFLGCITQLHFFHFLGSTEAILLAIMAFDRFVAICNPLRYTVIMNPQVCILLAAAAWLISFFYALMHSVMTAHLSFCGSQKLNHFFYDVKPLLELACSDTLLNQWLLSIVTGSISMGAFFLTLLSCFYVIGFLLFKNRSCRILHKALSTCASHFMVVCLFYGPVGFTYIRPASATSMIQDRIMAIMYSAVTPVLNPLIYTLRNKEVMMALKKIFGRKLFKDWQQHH
Procedure, shortened: as §1

OR13A1 (Homo sapiens) = molecular target: T9, OR13A1 (Homo sapiens) (UniProt Q8NGR1)
T9 sequence (whole entry): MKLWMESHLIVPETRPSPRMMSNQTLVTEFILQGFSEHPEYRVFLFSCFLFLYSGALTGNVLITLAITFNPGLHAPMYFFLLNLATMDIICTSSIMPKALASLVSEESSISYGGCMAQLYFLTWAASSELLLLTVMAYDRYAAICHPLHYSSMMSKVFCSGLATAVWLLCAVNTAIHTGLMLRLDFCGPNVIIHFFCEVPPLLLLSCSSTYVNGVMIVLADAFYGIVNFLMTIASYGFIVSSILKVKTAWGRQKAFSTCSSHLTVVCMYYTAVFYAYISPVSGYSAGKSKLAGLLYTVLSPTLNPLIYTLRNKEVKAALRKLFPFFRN
Procedure, shortened: as §1

OR13C2 (Homo sapiens) = molecular target: T10, OR13C2 (Homo sapiens) (UniProt Q8NGS9)
T10 sequence (whole entry): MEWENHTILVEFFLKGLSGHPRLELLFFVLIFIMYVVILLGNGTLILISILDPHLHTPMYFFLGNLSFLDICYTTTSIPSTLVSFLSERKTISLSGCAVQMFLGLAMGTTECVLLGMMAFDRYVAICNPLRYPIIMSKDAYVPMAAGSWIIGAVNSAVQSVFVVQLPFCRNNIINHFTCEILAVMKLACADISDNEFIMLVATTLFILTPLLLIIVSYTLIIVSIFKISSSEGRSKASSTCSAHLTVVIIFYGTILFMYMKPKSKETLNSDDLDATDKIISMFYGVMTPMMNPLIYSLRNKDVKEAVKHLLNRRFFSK
Procedure, shortened: as §1

Measured: odorant receptor agonist call;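 further: active if original authors judged signal statistically different from baseline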

CCCCOC(C)=O
inactive: all assays above
